The values below come from PubChem BioAssay AID2685 (National Center for Advancing Translational Sciences (NCATS), 2010).

Molecules are shown by their SMILES. Some of the results follow. These are further read-outs of the screen, such as a control signal, another cell line or another target. No call is given for them. The list favours compounds with an active or inconclusive main result. Words in brackets tell the shape of the fitted curve; partial curves, single points and poor fits give uncertain potencies.

The assay in a line: qHTS Assay for Lipid Storage Modulators in Drosophila S3 Cells.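 On cell number change: cells counted by Cell Tracker Red CMTPX staining in the red channel.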 The following applies: BODIPY lipid droplet fluorescence, 18-24 h; for cell number change: measured here: cell count max response, cells fed with added oleic acid. In a few lines: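 Drosophila S3 cells got compounds at several concentrations plus oleic acid (400 uM solution). Laser-scanning cytometry with 488 nm excitation read lipid droplets at 500-530 nm and cells at 575-640 nm. Percent activity was relative to 20 uM Triacsin C.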
In general terms: Quantitative high-throughput screening tests each substance at several concentrations.

Setting [1] is: measured here: lipid fluorescence (Fed channel) AC50, cells fed with added oleic acid.
[2] abbreviates: measured here: cell number channel AC50, cells fed with added oleic acid.

As for `O=C(NC1CCCC1)C1CCCN(C(=O)Nc2ccccc2)C1` (stereo not given), the cell number change stood at 20%. In addition, the AC50 (commonly the concentration giving half of the maximal activity seen) under setting [1] is 0.00461 µM [rising, full curve, poor fit].

As for `CC(C)(C)c1csc(NC(=O)c2ccc3nccnc3c2)n1`, the cell number change came out at 4.44%.

Consider `Cc1ccc(NC(=O)CCN2C(=O)c3ccccc3Sc3ncccc32)cc1`, for which the cell number change turned out to be 59.3%. The AC50 under setting [2] was 29.1 µM [rising, single point]. In addition, the AC50 under setting [1] is 29.1 µM [rising, single point].

For the compound `CCOC(=O)[C@H]1[C@H]2COc3ccc(OC)cc3[C@@H]2N2C(=O)[C@H](C)NC(=O)[C@@]12C`, the cell number change was -1.81%. Also, the AC50 under setting [1] is 5.17 µM [falling, single point].

For the compound `Cc1cc(C)n(-c2nc3ccccc3c(=O)n2OCC(=O)Nc2c(C)cccc2C)n1`, the cell number change was 19.4%. The AC50 under setting [1] was 2.06 µM [rising, partial curve].

For the compound `O=C(NCCCn1ccnc1)c1ccc(C(F)(F)F)cc1`, the cell number change worked out at 14.2%.

Take `CC1CCN(Cc2csc(N)n2)CC1`: the cell number change was -24.5%. Moreover, the AC50 under setting [2] is 7.31 µM [falling, partial curve, poor fit]. The AC50 under setting [1] was 0.13 µM [falling, full curve, poor fit].

For `CC(C)(C)C(=O)NC(=S)Nc1ccc(Cl)c(C(=O)O)c1`, the cell number change was determined as 15.7%. For the same compound, under setting [1], the AC50 is 6.51 µM [falling, partial curve, poor fit].

In the case of `COc1cc(NC(=O)C2CCC(CNc3c(N4CCC(C)CC4)c(=O)c3=O)CC2)cc(OC)c1` (stereo not given), the cell number change was determined as 5.46%. Moreover, under setting [1], the AC50 was 25.9 µM [rising, single point].

Turning to `O=C(NCc1cn(-c2ccccc2)nc1-c1ccccc1)c1cccc([N+](=O)[O-])c1`, the cell number change came out at 39.2%. Besides, the AC50 under setting [2] was 4.11 µM [rising, full curve]. Also, the AC50 under setting [1] was 29.1 µM [falling, single point].

Turning to `O=C(O)/C=C/C(=O)Nc1ccccc1SC(F)(F)C(F)(F)C(F)(F)F`, the cell number change is -116%. The AC50 under setting [2] was 29.1 µM [falling, partial curve, poor fit]. Further, under setting [1], the AC50 is 29.1 µM [falling, partial curve].

Regarding `O=C(OCC(=O)N(C1CCCCC1)C1CCCCC1)c1ccc(Cl)nc1`, the cell number change was determined as 11.1%. Moreover, the AC50 under setting [1] was 29.1 µM [rising, single point].

For `CNC(=S)SCCOc1ccccc1`, the cell number change was 6.4%. Under setting [1], the AC50 is 0.82 µM [rising, single point].

Turning to `CCOC(=O)c1sc2nc(CC(=O)OC)nc(NCc3ccc(Cl)cc3)c2c1C`, the cell number change amounted to 24.1%. For the same compound, the AC50 under setting [2] was 1.84 µM [rising, partial curve]. The AC50 under setting [1] was 2.06 µM [rising, partial curve].

In the case of `Cc1cc(=O)[nH]c(SCC(=O)OCc2ccccc2)c1C#N`, the cell number change was 13.8%. The AC50 under setting [1] is 1.64 µM [falling, partial curve].

As to `CCOC(=O)N1CCN(CC(O)COCc2cc(OC)c(OC)c(OC)c2)CC1` (stereo not given), the cell number change is -36.8%. Moreover, the AC50 under setting [2] is 0.517 µM [rising, full curve].

For the compound `N#CC(=C1CCCC1)c1nc(-c2cc3ccccc3oc2=O)cs1`, the cell number change turned out to be 19%. Besides, under setting [1], the AC50 was 0.92 µM [rising, full curve].

Take `CC/C(=N\NC(=O)c1c(C)nc2ccccn12)c1ccccc1`: the cell number change is -0.451%. Moreover, under setting [1], the AC50 is 0.58 µM [rising, single point].

In the case of `CN1CCN(C(c2ccc(Cl)cc2)c2cc(Cl)c3cccnc3c2O)CC1` (stereo not given), the cell number change stood at 26.5%. Also, the AC50 under setting [1] is 29.1 µM [rising, single point].

`Clc1ccc(CN=C2Nc3ccccc3CS2)cc1`: the cell number change was -26%.

For the compound `CC(C)C(=O)Nc1ccc(C(=O)NNC(=O)c2ccco2)cc1`, the cell number change is -12.4%. In addition, under setting [2], the AC50 was 0.00411 µM [falling, full curve, poor fit].

Regarding `Oc1sc(C=Nc2ccc(F)cc2)c2ccccc12`, the AC50 under setting [2] is 6.51 µM [rising, single point].

With `CC(=O)N1c2ccccc2NC(=O)C1(C)C`, the cell number change was -28.9%. Besides, the AC50 under setting [2] is 2.06 µM [falling, full curve, poor fit].

As to `O=C(CN1CCc2ccccc21)NC(=O)NCc1ccco1`, the AC50 under setting [1] is 29.1 µM [falling, single point].

Consider `O=[N+]([O-])c1c(NCCCO)cc(Sc2ccc(Cl)cc2)c2nonc12`, for which the cell number change is -48.5%. Further, under setting [2], the AC50 was 3.66 µM [falling, full curve]. Moreover, under setting [1], the AC50 was 4.11 µM [falling, full curve].

As to `CCOC(=O)c1nc(S(C)(=O)=O)ncc1N1CCOCC1`, the cell number change was determined as 7.9%. Besides, the AC50 under setting [1] was 5.17 µM [falling, partial curve, poor fit].

Regarding `COCCn1c(Cc2ccccc2)nnc1SCC(=O)NC1CCCCC1`, the cell number change is 15.2%. Further, the AC50 under setting [1] was 29.1 µM [rising, single point].

On to `Cc1ccc(NC(=O)CSc2nnc(Cc3ccccc3)o2)cc1`, for which the cell number change amounted to 18.1%.

As for `COc1ccc(-c2noc(CCC(=O)NC3CCCCCC3)n2)cc1`, the cell number change was determined as 83.9%. In addition, the AC50 under setting [2] was 16.4 µM [rising, partial curve]. In addition, the AC50 under setting [1] was 11.6 µM [rising, single point].

In the case of `C=CCNS(=O)(=O)c1ccc2nsnc2c1`, under setting [2], the AC50 is 0.731 µM [rising, single point].

On to `Cc1ccc(S(=O)(=O)N2CCCCC2CCNC(=O)C(=O)NCC2CCCO2)cc1` (stereo not given), for which the cell number change was -3.95%.

For the compound `CCOC(=O)C1(Cc2ccccc2)CCCN(CCCn2cccn2)C1` (stereo not given), the cell number change was determined as 23.9%.

For `O=C(Nc1ccc(O)c2c(=O)cc(-c3cccc(Cl)c3)oc12)c1cccc(Cl)c1`, the cell number change was -5.83%. Also, the AC50 under setting [1] is 0.0326 µM [rising, full curve, poor fit].

For `CCOc1ncccc1C(=O)OCc1c(F)cccc1Cl`, the concentration at half-maximal activity (AC50) under setting [1] was 6.51 µM [falling, single point].

With `O=C(c1cccc(S(=O)(=O)N2CCCC2)c1)c1cccc(S(=O)(=O)N2CCCC2)c1`, the cell number change was -37.5%. In addition, the AC50 under setting [2] was 0.731 µM [falling, partial curve].

As to `C/C(N)=C(/C#N)C(=O)COC(=O)CNS(=O)(=O)c1ccc(F)c(F)c1F`, the cell number change came to 23.5%. Besides, the AC50 under setting [2] was 0.146 µM [rising, full curve, poor fit]. In addition, the AC50 under setting [1] was 0.146 µM [rising, full curve, poor fit].

Turning to `CCOc1ccc2nc(NC(=O)c3cc([N+](=O)[O-])ccc3N3CCOCC3)sc2c1`, the cell number change was found to be 1.42%. For the same compound, under setting [1], the AC50 is 0.731 µM [rising, partial curve, poor fit].

In the case of `Cc1cc(C)cc(C(=O)Nc2ccc(N3CCN(C(=O)c4ccco4)CC3)cc2)c1`, the cell number change is -3.88%.

On to `COc1ccc(Cl)cc1S(=O)(=O)n1ccnc1C(C)C`, for which the cell number change worked out at 7.13%.

Consider `O=C(Oc1ccc(N(Cc2cccs2)C2=NS(=O)(=O)c3ccccc32)cc1)c1ccccc1`, for which the cell number change was -37.9%. The AC50 under setting [2] is 3.26 µM [rising, single point].

As for `C=CCOC(=O)C1=C(C)NC(SC)=C(C#N)C1c1ccc(OCC)cc1` (stereo not given), the cell number change was -14.4%.

In the case of `O=C(CN1C(=O)NC2(CCCc3ccccc32)C1=O)Nc1ccccc1OC(F)F` (stereo not given), the cell number change amounted to 7.64%. Besides, the concentration at half-maximal activity (AC50) under setting [1] was 0.0291 µM [falling, full curve, poor fit].

With `NC(=O)N1CCc2ccccc21`, the cell number change is -36.3%. The AC50 under setting [1] was 32.6 µM [falling, single point].

On to `CCC(C)[C@@H](C(=O)Nc1ccc2c(c1)OCO2)N1Cc2ccccc2C1=O` (stereo not given in full), for which the cell number change came to 24.4%. The AC50 under setting [1] was 0.0326 µM [rising, full curve, poor fit].

With `CCOc1ccc(-c2nnc(SCC(=O)N3CCOCC3)o2)cc1`, the cell number change was determined as 18.1%. Further, the concentration at half-maximal activity (AC50) under setting [1] was 2.91 µM [rising, full curve].

In the case of `COC(=O)[C@H](Cc1ccccc1)NC(=O)N1CCC(C)CC1`, the cell number change was -14%. In addition, under setting [1], the AC50 was 20.6 µM [falling, partial curve].

As to `Cn1nc(C(F)(F)F)cc1C(=O)Nc1ccc(Cl)cc1`, the cell number change was -30%. For the same compound, the AC50 under setting [2] was 2.59 µM [falling, full curve]. In addition, the AC50 under setting [1] was 1.64 µM [falling, full curve].

`C/C(N)=C(/C#N)C(=O)COC(=O)c1cccc(O)c1`: the cell number change is -9.62%. Further, the AC50 under setting [2] was 0.13 µM [rising, full curve]. Also, the AC50 under setting [1] is 0.92 µM [rising, full curve].

For `CC(=O)Nc1cccc(NC(=O)CS(=O)(=O)c2cn(CC(=O)N3CCCC3)c3ccccc23)c1`, the cell number change is -7.65%. In addition, the AC50 under setting [1] was 29.1 µM [rising, single point].

`Cn1ccnc1SCc1cn2cc(Br)ccc2n1`: the cell number change stood at 20.3%. The AC50 under setting [2] is 0.82 µM [rising, full curve, poor fit]. The concentration at half-maximal activity (AC50) under setting [1] was 29.1 µM [rising, single point].

In the case of `O=c1cc2c(n[nH]1)CCCC2`, the AC50 under setting [1] is 29.1 µM [falling, single point].

For `CSc1ccccc1C(=O)N1CCCCC1`, the cell number change is -21.8%. The AC50 under setting [1] is 11.2 µM [falling, partial curve, poor fit].

For the compound `CCCNC(=O)c1nnsc1S(=O)(=O)c1ccc(Cl)cc1`, the cell number change was -37%. The AC50 under setting [2] is 20.6 µM [falling, single point]. Moreover, under setting [1], the AC50 is 29.1 µM [falling, partial curve].

For the compound `COc1cc(S(=O)(=O)Nc2ccccc2)ccc1NC=O`, the cell number change amounted to 52.4%. In addition, under setting [2], the AC50 was 0.731 µM [rising, full curve, poor fit]. Besides, the AC50 under setting [1] was 9.2 µM [rising, partial curve].

Regarding `COc1ccc(CCNC(=O)COC(=O)CNS(=O)(=O)c2ccc(SC)c([N+](=O)[O-])c2)cc1`, the cell number change was -2.76%. Further, under setting [1], the AC50 is 1.64 µM [rising, partial curve].

Turning to `Cc1ccccc1-n1c(-c2csc3ccccc23)n[nH]c1=S`, the cell number change is 17.1%. In addition, the AC50 under setting [1] was 0.058 µM [falling, full curve, poor fit].

Take `COc1cc2nc(=S)n3[nH]c(COc4ccccc4C)nc3c2cc1OC`: the cell number change is -0.74%.

On to `O=C(Nc1nnc(CCN2CCCCC2)s1)C1CCCCC1`, for which the cell number change is -32.6%. Moreover, the AC50 under setting [2] is 0.651 µM [falling, full curve]. For the same compound, under setting [1], the AC50 is 3.26 µM [falling, partial curve].

Regarding `O=C(COC(=O)CCN1C(=O)C2CC=CCC2C1=O)NCCc1ccccc1` (stereo not given), the cell number change is -3.87%. Further, the AC50 under setting [1] was 0.146 µM [rising, full curve].

For `COc1ccc(Cl)cc1NC(=O)COC(=O)C1CCCCC1`, the cell number change is -32.9%. Besides, under setting [2], the AC50 was 0.13 µM [falling, full curve, poor fit]. The AC50 under setting [1] was 9.2 µM [falling, partial curve].
